In PMC6358217:
No constants are given. Whether binding was seen depends on the method and setting. In cells and extracts the contact can be indirect. Some binding calls cover weakened binding; strength is not graded here. Tags and fused reporters may be left off the sequences shown.

T1: PIP5Kinase Skittles (SKTL), GFP-tagged (D. melanogaster) (UniProt Q9W2R3)
T1 sequence: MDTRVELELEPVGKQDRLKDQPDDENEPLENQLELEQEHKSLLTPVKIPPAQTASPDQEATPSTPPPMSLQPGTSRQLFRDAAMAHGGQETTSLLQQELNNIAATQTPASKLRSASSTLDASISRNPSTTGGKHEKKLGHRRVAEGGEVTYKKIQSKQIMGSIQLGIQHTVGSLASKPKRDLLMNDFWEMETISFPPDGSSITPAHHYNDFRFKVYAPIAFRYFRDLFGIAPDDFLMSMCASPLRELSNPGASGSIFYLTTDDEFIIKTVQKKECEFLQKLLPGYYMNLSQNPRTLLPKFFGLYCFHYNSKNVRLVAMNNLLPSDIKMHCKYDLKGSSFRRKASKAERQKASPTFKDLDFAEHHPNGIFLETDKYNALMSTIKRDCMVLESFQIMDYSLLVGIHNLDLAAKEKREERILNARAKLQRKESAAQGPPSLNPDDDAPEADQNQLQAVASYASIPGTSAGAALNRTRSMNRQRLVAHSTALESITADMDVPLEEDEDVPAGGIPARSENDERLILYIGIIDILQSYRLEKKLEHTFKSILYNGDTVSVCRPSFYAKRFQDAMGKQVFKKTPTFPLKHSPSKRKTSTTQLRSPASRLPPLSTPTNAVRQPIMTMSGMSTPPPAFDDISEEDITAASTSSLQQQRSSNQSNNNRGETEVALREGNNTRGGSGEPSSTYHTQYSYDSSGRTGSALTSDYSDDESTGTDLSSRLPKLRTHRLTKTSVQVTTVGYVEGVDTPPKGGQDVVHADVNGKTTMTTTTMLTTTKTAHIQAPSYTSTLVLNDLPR

T2: DLIC-GFP (D. melanogaster) (UniProt Q9VZ20)
T2 sequence: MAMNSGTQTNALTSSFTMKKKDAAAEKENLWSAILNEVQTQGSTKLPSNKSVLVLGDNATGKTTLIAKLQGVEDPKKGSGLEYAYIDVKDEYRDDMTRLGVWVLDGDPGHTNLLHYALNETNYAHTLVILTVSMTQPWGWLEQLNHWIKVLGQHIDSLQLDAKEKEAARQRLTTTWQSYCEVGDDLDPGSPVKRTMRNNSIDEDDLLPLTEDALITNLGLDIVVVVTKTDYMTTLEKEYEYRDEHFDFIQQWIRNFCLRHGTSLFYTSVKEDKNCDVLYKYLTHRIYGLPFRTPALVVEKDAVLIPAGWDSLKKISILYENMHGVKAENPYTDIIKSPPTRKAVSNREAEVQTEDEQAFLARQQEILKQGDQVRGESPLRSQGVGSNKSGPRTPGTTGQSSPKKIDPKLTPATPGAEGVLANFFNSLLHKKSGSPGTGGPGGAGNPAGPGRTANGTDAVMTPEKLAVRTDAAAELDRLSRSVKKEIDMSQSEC


How the values were obtained:
[1] = molecular target: T1, PIP5Kinase Skittles (SKTL), GFP-tagged (D. melanogaster); assay: co-IP; S2 cell extracts (freeze-thaw lysis) of cells transfected with GFP-SKTL or GFP-SNAP (control) and PAR3-HA; GFP-Trap_MA magnetic beads, 2 h at 4°C; western blot with anti-HA and anti-DLIC
[2] = molecular target: T2, DLIC-GFP (D. melanogaster); assay: co-IP; ovarian extracts of Pubi-DLIC-GFP flies or control Pubi-PDI-GFP flies; lysis buffer 10 mM Tris/Cl pH7.5, 150 mM NaCl, 0.5 mM EDTA, 0.5% NP-40; GFP-Trap_MA magnetic beads, 2 h at 4°C; western blot with anti-PAR3

Row | binding [1] | binding [2] | Binder
1 | binds | – | dynein light intermediate chain (DLIC), endogenous in S2 cells (protein, UniProt Q9VZ20 1-493) MAMNSGTQTNALTSSFTMKKKDAAAEKENLWSAILNEVQTQGSTKLPSNKSVLVLGDNATGKTTLIAKLQGVEDPKKGSGLEYAYIDVKDEYRDDMTRLGVWVLDGDPGHTNLLHYALNETNYAHTLVILTVSMTQPWGWLEQLNHWIKVLGQHIDSLQLDAKEKEAARQRLTTTWQSYCEVGDDLDPGSPVKRTMRNNSIDEDDLLPLTEDALITNLGLDIVVVVTKTDYMTTLEKEYEYRDEHFDFIQQWIRNFCLRHGTSLFYTSVKEDKNCDVLYKYLTHRIYGLPFRTPALVVEKDAVLIPAGWDSLKKISILYENMHGVKAENPYTDIIKSPPTRKAVSNREAEVQTEDEQAFLARQQEILKQGDQVRGESPLRSQGVGSNKSGPRTPGTTGQSSPKKIDPKLTPATPGAEGVLANFFNSLLHKKSGSPGTGGPGGAGNPAGPGRTANGTDAVMTPEKLAVRTDAAAELDRLSRSVKKEIDMSQSEC
2 | binds | – | PAR3-HA (protein, UniProt O96782 1-1464) MKVTVCFGDVRILVPCGSGELLVRDLVKEATRRYIKAAGKPDSWVTVTHLQTQSGILDPDDCVRDVADDREQILAHFDDPGPDPGVPQGGGDGASGSSSVGTGSPDIFRDPTNTEAPTCPRDLSTPHIEVTSTTSGPMAGLGVGLMVRRSSDPNLLASLKAEGSNKRWSAAAPHYAGGDSPERLFLDKAGGQLSPQWEEDDDPSHQLKEQLLHQQQPHAANGGSSSGNHQPFARSGRLSMQFLGDGNGYKWMEAAEKLQNQPPAQQTYQQGSHHAGHGQNGAYSSKSLPRESKRKEPLGQAYESIREKDGEMLLIINEYGSPLGLTALPDKEHGGGLLVQHVEPGSRAERGQLRRDDRILEINGIKLIGLTESQVQEQLRRALESSELRVRVLRGDRNRRQQRDSKVADMVEVATVSPTRKPHAAPVGTSLQVANTRKLGRKIQIMLKKGPNGLGFSVTTRDNPAGAHCPIYIKNILPRGAAIEDGRLKPGDRLLEVDGTPMTGKTQTDVVAILRGMPAGATVRIVVSRQQELAEQADQPAEKSAGVAVAPSVAPPAVPAAAAPAPPIPVQKSSSARSLFTHQQQSQLNESQHFIDAGSESAASNDSLPPSSNSWHSREELTLHIPVHDTEKAGLGVSVKGKTCSNLNASGSSASSGSNGLMKHDGDLGIFVKNVIHGGAASRDGRLRMNDQLLSVNGVSLRGQNNAEAMETLRRAMVNTPGKHPGTITLLVGRKILRSASSSDILDHSNSHSHSHSNSSGGSNSNGSGNNNNSSSNASDNSGATVIYLSPEKREQRCNGGGGGGSAGNEMNRWSNPVLDRLTGGICSSNSAQPSSQQSHQQQPHPSQQQQQQRRLPAAPVCSSAALRNESYYMATNDNWSPAQMHLMTAHGNTALLIEDDAEPMSPTLPARPHDGQHCNTSSANPSQNLAVGNQGPPINTVPGTPSTSSNFDATYSSQLSLETNSGVEHFSRDALGRRSISEKHHAALDARETGTYQRNKKLREERERERRIQLTKSAVYGGSIESLTARIASANAQFSGYKHAKTASSIEQRETQQQLAAAEAEARDQLGDLGPSLGMKKSSSLESLQTMVQELQMSDEPRGHQALRAPRGRGREDSLRAAVVSEPDASKPRKTWLLEDGDHEGGFASQRNGPFQSSLNDGKHGCKSSRAKKPSILRGIGHMFRFGKNRKDGVVPVDNYAVNISPPTSVVSTATSPQLQQQQQQQLQQHQQQQQIPTAALAALERNGKPPAYQPPPPLPAPNGVGSNGIHQNDIFNHRYQHYANYEDLHQQHQQHQISRRHQHYHSQRSARSQDVSMHSTSSGSQPGSLAQPQAQSDGVRPMSSYYEYETVQQQRVGSIKHSHSSSATSSSSSPINVPHWKAAAMNGYSPASLNSSARSRGPFVTQVTIREQSSGGIPAHLLQQHQQQQLQQQQPTYQTVQKMSGPSQYGSAAGSQPHASKV
3 | – | binds weakly | endogenous PAR3 of ovarian extract (protein, UniProt O96782 1-1464) MKVTVCFGDVRILVPCGSGELLVRDLVKEATRRYIKAAGKPDSWVTVTHLQTQSGILDPDDCVRDVADDREQILAHFDDPGPDPGVPQGGGDGASGSSSVGTGSPDIFRDPTNTEAPTCPRDLSTPHIEVTSTTSGPMAGLGVGLMVRRSSDPNLLASLKAEGSNKRWSAAAPHYAGGDSPERLFLDKAGGQLSPQWEEDDDPSHQLKEQLLHQQQPHAANGGSSSGNHQPFARSGRLSMQFLGDGNGYKWMEAAEKLQNQPPAQQTYQQGSHHAGHGQNGAYSSKSLPRESKRKEPLGQAYESIREKDGEMLLIINEYGSPLGLTALPDKEHGGGLLVQHVEPGSRAERGQLRRDDRILEINGIKLIGLTESQVQEQLRRALESSELRVRVLRGDRNRRQQRDSKVADMVEVATVSPTRKPHAAPVGTSLQVANTRKLGRKIQIMLKKGPNGLGFSVTTRDNPAGAHCPIYIKNILPRGAAIEDGRLKPGDRLLEVDGTPMTGKTQTDVVAILRGMPAGATVRIVVSRQQELAEQADQPAEKSAGVAVAPSVAPPAVPAAAAPAPPIPVQKSSSARSLFTHQQQSQLNESQHFIDAGSESAASNDSLPPSSNSWHSREELTLHIPVHDTEKAGLGVSVKGKTCSNLNASGSSASSGSNGLMKHDGDLGIFVKNVIHGGAASRDGRLRMNDQLLSVNGVSLRGQNNAEAMETLRRAMVNTPGKHPGTITLLVGRKILRSASSSDILDHSNSHSHSHSNSSGGSNSNGSGNNNNSSSNASDNSGATVIYLSPEKREQRCNGGGGGGSAGNEMNRWSNPVLDRLTGGICSSNSAQPSSQQSHQQQPHPSQQQQQQRRLPAAPVCSSAALRNESYYMATNDNWSPAQMHLMTAHGNTALLIEDDAEPMSPTLPARPHDGQHCNTSSANPSQNLAVGNQGPPINTVPGTPSTSSNFDATYSSQLSLETNSGVEHFSRDALGRRSISEKHHAALDARETGTYQRNKKLREERERERRIQLTKSAVYGGSIESLTARIASANAQFSGYKHAKTASSIEQRETQQQLAAAEAEARDQLGDLGPSLGMKKSSSLESLQTMVQELQMSDEPRGHQALRAPRGRGREDSLRAAVVSEPDASKPRKTWLLEDGDHEGGFASQRNGPFQSSLNDGKHGCKSSRAKKPSILRGIGHMFRFGKNRKDGVVPVDNYAVNISPPTSVVSTATSPQLQQQQQQQLQQHQQQQQIPTAALAALERNGKPPAYQPPPPLPAPNGVGSNGIHQNDIFNHRYQHYANYEDLHQQHQQHQISRRHQHYHSQRSARSQDVSMHSTSSGSQPGSLAQPQAQSDGVRPMSSYYEYETVQQQRVGSIKHSHSSSATSSSSSPINVPHWKAAAMNGYSPASLNSSARSRGPFVTQVTIREQSSGGIPAHLLQQHQQQQLQQQQPTYQTVQKMSGPSQYGSAAGSQPHASKV
